Among the data in PubChem BioAssay AID540256 (National Center for Advancing Translational Sciences (NCATS), 2011) are Potency values, retold here.

The structures appear in SMILES notation. The list shows a part of the results, in another mix than the full data. Results filed as inconclusive are left out. Activity calls are given as the source filed them. Calls come from the whole dose curve; tested in HEK293 cells.
Potency is the fitted concentration of half-maximal effect.

The assay in a line: qHTS for Inhibitors of binding or entry into cells for Lassa Virus. Note: nearly all actives have a fitted effect of over 50% in size. Conditions: Lassa virus pseudotype entry inhibition, cell reporter. For orientation: In qHTS, concentration-response curves come from the screen itself.
Regarding `Fc1ccc(-c2ncn(C3CCNCC3)c2-c2ccnc(Oc3cccc(C(F)(F)F)c3)n2)cc1`, the Potency was active: 12.5 µM.

With `Fc1ccc(-c2ncn(C3CCNCC3)c2-c2ccnc(Oc3cccc(F)c3)n2)cc1`, the Potency was active: 6.28 µM. For `Fc1ccc(-c2ncn(C3CCNCC3)c2-c2ccnc(Oc3ccc(Cl)cc3)n2)cc1`, the Potency is active: 17.7 µM. With `CC(C)(C)c1ccc(Oc2nccc(-c3c(-c4ccc(F)cc4)ncn3C3CCNCC3)n2)cc1` the figure was active: 6.28 µM; with `Cc1cccc(Oc2nccc(-c3c(-c4ccc(F)cc4)ncn3C3CCNCC3)n2)c1C`, active: 14.1 µM.
